Assay results as given in patent US4016166A, “1-Nitrophenylquinazoline-2,4(1H,3H)-diones” (Hisamitsu Pharmaceutical Co., Inc., priority 1973, dated 1977).

System: righting reflex
Assay: Central nervous system depressive effect (disappearance of righting reflex, mouse)
Format: in vivo, dd-strain male mice
Details: ip, read-out: CNS depressive effect (dose required for disappearance of righting reflex)
Procedure: Each test compound suspended in 0.5 % tragacanth-saline solution was injected intraperitoneally to dd-strain male mice (16-24 g). The disappearance of righting reflex was observed under noiseless circumstances. The dose required for the dissappearance of righting reflex is indicated with the following notations:
more than 1,000 (mg/kg) : -
less than 10 (mg/kg) : ++++

Compound: CN1C(=O)CN=C(c2ccccc2)c2cc(Cl)ccc21 [diazepam, reference compound]
- minimal effective dose: 30 to 100 mg/kg
